Consider 85 compounds from PubChem BioAssay AID485318 (Broad Institute, 2010).

The chains behind the UniProt entries cited, without tags or fusion partners. Where a name states a change or a piece, a line headed by the entry shows the natural chain unless it says otherwise.
UniProt O15379: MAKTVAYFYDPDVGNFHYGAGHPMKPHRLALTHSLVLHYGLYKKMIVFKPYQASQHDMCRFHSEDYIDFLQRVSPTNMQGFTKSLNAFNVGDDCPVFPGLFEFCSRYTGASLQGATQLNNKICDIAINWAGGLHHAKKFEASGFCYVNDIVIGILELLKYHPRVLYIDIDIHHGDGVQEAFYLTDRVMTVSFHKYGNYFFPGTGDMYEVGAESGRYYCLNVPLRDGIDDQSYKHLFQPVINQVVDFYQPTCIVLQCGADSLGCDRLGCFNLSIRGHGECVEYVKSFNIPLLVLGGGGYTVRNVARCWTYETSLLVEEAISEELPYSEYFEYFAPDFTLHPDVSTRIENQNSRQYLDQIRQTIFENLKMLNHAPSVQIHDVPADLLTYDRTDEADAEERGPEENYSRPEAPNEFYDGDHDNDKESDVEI

Among all 1,400 compounds or so, fewer than 10 were called active.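 The calls were made as follows: active = fluorescence-lowering compounds whose fitted half-maximal concentration is at or below ten times the highest valid dose tested; inconclusive = flat curve at 30 to 70% inhibition, or poor fit; inactive = the rest.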 The list shows a part of the results.

In this assay the target is Histone deacetylase 3 (Homo sapiens) (UniProt O15379). Put plainly: inhibition of human HDAC3 enzymatic activity – biochemical, fluorescence, cherry-picked samples, counter-screen for JMJD2C/GASC1 demethylase inhibitor project, dose response (AID 485318).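 Also: enzyme preincubated with compound before substrate and trypsin were added; 0% = neutral control wells and -100% = SAHA positive control wells.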 The settings on record: recombinant HDAC3, fluorogenic peptide/trypsin coupled; at 12 µM (top of the series).
As to `CCC(=O)Nc1ccccc1Nc1cc(C#N)c(C#N)cc1[N+](=O)[O-]`, the activity change, negative = inhibition is inactive: 0.0903%. The value for `Nn1cc(-c2ccccc2)nc1SCC(=O)N1CCN(S(=O)(=O)c2ccc3ccccc3c2)CC1` was inactive: -0.203%; that for `COc1ccc(NC(=O)CCc2ccccc2)cc1NC(=O)c1ccco1` was inactive: 0.709%; that for `CC1(C)CC[C@]2(CO)CC[C@]3(C)C(=CCC4[C@@]5(C)CC[C@H](O)[C@@](C)(CO)C5CC[C@]43C)[C@@H]2C1` (stereo not given in full) was inactive: -0.14%.

For the compound `CCOC(=O)C1=C(C)NC(=O)NC1c1ccc(Br)s1` (stereo not given), the activity change, negative = inhibition is inactive: -0.578%. Under `O=C(Cc1ccccc1Cl)NC1(O)C(=O)c2ccccc2C1=O` stands inactive: 0.909%. In the case of `Cc1c(C2Nc3ccccc3NC3=C2C(=O)CC(C)(C)C3)cnn1C` (stereo not given), the activity change, negative = inhibition was inactive: 1.16%. For the compound `C[C@H](CO)N1C[C@H](C)[C@H](CN(C)S(=O)(=O)c2ccccc2)Oc2c(NS(C)(=O)=O)cccc2C1=O`, the activity change, negative = inhibition is inactive: 0.0101%. The value for `CS(=O)(=O)N(CCc1ccccc1)CC(=O)NCc1ccc(Cl)cc1` was inactive: -0.337%.

As to `CCCOC(=O)c1ccc(-c2ccc(C=O)o2)cc1`, the activity change, negative = inhibition is inactive: 0.318%. As to `COC(=O)c1cc(OC)c(OC)cc1NC(=O)Cn1nnc(-c2ccccc2Cl)n1`, the activity change, negative = inhibition was inactive: 0.277%. Regarding `Cc1ccc([N+](=O)[O-])cc1N=C(c1cccc([N+](=O)[O-])c1)N1CCOCC1`, the activity change, negative = inhibition is inactive: 0.611%. Under `O=[N+]([O-])c1cc(Cl)ccc1Nc1ccccc1` stands inactive: 0.735%. Under `O=C1c2ccccc2C(=O)N1CCC(c1ccccc1)c1ccco1` (stereo not given) stands inactive: -0.452%; under `Cc1ccccc1NS(=O)(=O)c1ccc(C(=O)NCC(c2ccco2)N(C)C)cc1` (stereo not given), inactive: 0.678%. With `CCCc1nn2c(=O)cc(CSCC(=O)Nc3ccccc3)nc2s1`, the activity change, negative = inhibition was inactive: 0.766%. Under `Cc1cc(C)c(OCC(=O)Nc2ccc(NC(=O)c3ccco3)cc2)c([N+](=O)[O-])c1` stands inactive: 0.897%; under `CCOC(=O)CCCCCC(=O)Nc1ccc2c(c1)CC(=O)N([C@H](C)CO)C[C@@H](C)[C@H](CN(C)Cc1ccc3c(c1)OCO3)O2`, inactive: -0.945%. Under `O=C(O)c1ccnc(C(=O)O)c1` stands inactive: -0.152%; under `C[C@@H]1CN([C@@H](C)CO)C(=O)c2cc(NC(=O)Nc3ccc4c(c3)OCO4)ccc2O[C@H]1CN(C)S(=O)(=O)c1ccc(F)cc1`, inactive: -0.312%. The value for `COc1ccc2c(c1)OC[C@H]1[C@H]2N2C(=O)CNC(=O)[C@@]2(C)[C@H]1c1ccccc1` was inactive: -0.581%. On to `CCc1ccc(NC(=O)CSc2nnc(CNC(=O)c3c(F)cccc3Cl)o2)cc1`, for which the activity change, negative = inhibition was inactive: 0.0315%. On to `N#CC1(NC(=O)Cn2ncc(Cl)c(Cl)c2=O)CCCCC1`, for which the activity change, negative = inhibition is inactive: -0.54%.

On to `CC(OC(=O)CN1C(=O)COc2ccccc21)C(=O)NCc1ccc(F)cc1` (stereo not given), for which the activity change, negative = inhibition was inactive: 0.76%. Under `C[C@H](N)c1nnc(SCC(=O)N(C)C)o1` stands inactive: -0.256%; under `O=C(N1CCN(c2ccccc2)CC1)C12CC3CC(CC(C3)C1)C2`, inactive: -0.173%. Under `CCN(C[C@H]1N[C@@](C)(C(=O)OC)[C@H]2C(=O)N(Cc3ccccc3)C(=O)[C@@H]12)C(=O)Nc1ccc(F)cc1` stands inactive: -0.653%; under `Cc1cccc2cc(C#N)c(SCCN3CCCCC3)nc12`, inactive: -0.21%. Under `OC(COc1ccc2ccccc2c1Br)Cn1cnc(-c2ccccc2)c1` (stereo not given) stands inactive: -0.011%. `O=C(O)c1ccccc1OCCOc1ccccc1C(=O)O`: the activity change, negative = inhibition is inactive: 0.223%. With `CCC/C(=N\NC(=O)c1csc(C)c1C)c1cccs1`, the activity change, negative = inhibition was inactive: 0.368%. The value for `COc1ccc(CCNC(=O)COC(=O)c2ccc(Br)o2)cc1` was inactive: 0.207%; that for `Cc1cnc(NC(=O)c2ccc(-c3nc4ccccc4s3)o2)s1` was inactive: 0.774%; that for `CCCCn1c(N)c(N(CC)C(=O)c2ccco2)c(=O)[nH]c1=O` was inactive: 0.105%.

For `CCCc1c(NC(=O)Nc2ccc(F)cc2)cnn1-c1ccccc1`, the activity change, negative = inhibition is inactive: 0.184%.

In the case of `O=C(Nc1ccccc1)Nc1ccc(S(=O)(=O)N2CCCCC2)cc1`, the activity change, negative = inhibition is inactive: 0.255%. Under `O=[N+]([O-])c1ccccc1/C=C/C=N/n1c(-c2ccc(Cl)cc2)n[nH]c1=S` stands inactive: 0.766%. Consider `Cc1ccc(S(=O)(=O)N(C)C[C@@H]2Oc3ccc(NC(=O)Cn4cnnn4)cc3C(=O)N([C@@H](C)CO)C[C@H]2C)cc1`, for which the activity change, negative = inhibition is inactive: 0.0257%. Under `CCNc1oc(-c2cccc3ccccc23)nc1C#N` stands inactive: 0.274%; under `COC(=O)[C@]1(C)N[C@H](CN(C)S(=O)(=O)c2ccc(F)cc2)[C@@H]2C(=O)N(C)C(=O)[C@@H]21`, inactive: -0.842%. As to `CCCCC(=O)NC(Nc1nc(C2CC2)cs1)(C(=O)OCC)C(F)(F)F` (stereo not given), the activity change, negative = inhibition was inactive: 0.125%. Consider `N#Cc1cc(-c2ccccc2)nnc1Sc1ccccc1`, for which the activity change, negative = inhibition was inactive: -0.00806%. Under `C#CC[N+]1(CC#Cc2ccc(C#CC[N+]3(CC#C)CCOCC3)cc2)CCOCC1` stands inactive: -0.0944%; under `Cc1ccc(-n2c3nc(=O)[nH]c(=O)c-3cc3c(C)nn(-c4ccccc4)c32)c(C)c1`, inactive: -0.0691%; under `CC1=NN(c2ccc(C)cc2C)C(=O)C1C(c1ccccc1)C1C(=O)N(c2ccc(C)cc2C)N=C1C` (stereo not given), inactive: -0.318%.

As for `O=C(NCCCn1ccnc1)c1cc2c(ccc3ccccc32)o1`, the activity change, negative = inhibition is inactive: -0.124%. The value for `CCOC(=O)CNC(=O)CNC(=O)c1ccc(OC)cc1` was inactive: 0.486%. Consider `Cn1c(/N=C/c2cc(Cl)ccc2O)nc2ccccc21`, for which the activity change, negative = inhibition is inactive: -0.0197%. `Cc1ccc(/C=N/NC(=O)c2ccc(C(=O)N/N=C/c3ccc(C)s3)o2)s1`: the activity change, negative = inhibition was inactive: 0.57%. Under `Cc1cc(-c2n[nH]c(=S)o2)c(C)n1-c1ccccc1` stands inactive: -0.98%. The value for `O=C(COC(=O)c1cccs1)c1ccccc1` was inactive: -0.266%; that for `Cc1nnc(N2C(=O)c3cccc4c([N+](=O)[O-])ccc(c34)C2=O)s1` was inactive: 0.858%; that for `Cc1ccc(-n2nc3c(N4CCC(C(=O)N5CCCCCC5)CC4)nnc(C)c3c2C)cc1` was inactive: 0.0499%. The value for `CN(C)CCCNC1=CC(=O)OC12CCCCC2` was inactive: -0.144%. Regarding `CCOC(=O)CCC(=O)NCc1ccc2c(c1)cc(C)n2C`, the activity change, negative = inhibition was inactive: 0.447%. Under `CCCSc1nc(-c2ccccc2)cc(C(F)(F)F)c1C#N` stands inactive: 0.346%. Under `O=c1oc2ccccc2c(O)c1C=NCc1ccccn1` stands inactive: -0.859%; under `Cn1c(=O)[nH]c(=O)c2c1nc(SCC(=O)O)n2CCc1ccccc1`, inactive: -0.805%; under `Cc1ccc(C(Sc2ccccc2)C(Cn2cncn2)C(=O)c2ccccc2)cc1` (stereo not given), inactive: 0.189%. As for `c1ccc2cc(CCO[C@H]3CCCCO3)ncc2c1`, the activity change, negative = inhibition was inactive: -0.0175%. In the case of `N#CC1=C(N)N2C(=C(C#N)C13CCCCC3)SC1CCCCC12O` (stereo not given), the activity change, negative = inhibition is inactive: 0.692%. Under `O=C(c1ccc2c(c1)OCO2)N1CCCN(C(=O)c2ccc3c(c2)OCO3)CC1` stands inactive: 0.114%. Under `N#Cc1ccc(CSc2ncnc3c2cnn3Cc2ccccc2)cc1` stands inactive: -0.017%; under `CCOC(=O)[C@H]1[C@H]2COc3ccc(C)cc3[C@@H]2N2C(=O)c3ccc(Cl)cc3NC(=O)[C@@]12C`, inactive: 0.735%. The value for `C=CCN(CC=C)Cc1c(O)ccc2c1oc(=O)c1ccccc12` was inactive: -0.106%; that for `COc1ccc(S(=O)(=O)N2CC(O)CC2C(=O)OCc2nc3sc(C)c(C)c3c(=O)[nH]2)cc1` (stereo not given) was inactive: 1.15%. With `COC(=O)C1=C(C)OC(N)=C(C#N)C1c1cc2cccc(C)c2nc1Cl` (stereo not given), the activity change, negative = inhibition was inactive: 0.775%. As for `NC(=O)CC(NC(=S)NCc1ccccc1)C(=O)O` (stereo not given), the activity change, negative = inhibition was inactive: 0.343%. As to `CS(=O)(=O)c1ccccc1-c1nnc(NC(=O)c2ccc3ncsc3c2)o1`, the activity change, negative = inhibition was inactive: -1.47%. Under `C=C(C)COc1ccc(-c2n[nH]c(C)c2-c2ccccc2)c(O)c1` stands inactive: 0.251%. Under `c1coc(CSCc2cn3cccnc3n2)c1` stands inactive: -0.595%; under `CCCNC1=C(N(C(C)=O)c2cccc(F)c2)C(=O)c2ccccc2C1=O`, inactive: 0.529%.

`Cc1ccc(CCNC(=O)C23C[C@H]4C[C@@H](C2)CC(n2nnc(C)n2)(C4)C3)cc1`: the activity change, negative = inhibition was inactive: 0.128%.

Turning to `Cc1ccccc1Cn1c2ccccc2c2cn[nH]c(=O)c21`, the activity change, negative = inhibition is inactive: -0.000171%. The value for `CN(C(=O)c1ccc(NC(=O)Cc2ccc(NC(=O)C3CCN(C(=O)C4CC4)CC3)cc2)cc1)C1CC1` was inactive: -0.494%; that for `C#CCOCCOCCOCCNc1nc(N2CCN(C(=O)[C@H](CCC(=O)O)n3cc(CN)nn3)CC2)nc(N2CCN(C(=O)[C@H](CCCN=C(N)N)n3cc(C(N)[C@@H](C)CC)nn3)CC2)n1` (stereo not given in full) was inactive: -0.509%; that for `Cc1cc(N2C(=O)C(=O)/C(=C(/O)c3ccc(F)cc3)C2c2cccc(Br)c2)no1` (stereo not given) was inactive: 0.0199%. Under `Cc1cccc(CN2CCC(Oc3ccc(C(=O)N4CCCC4)cc3)CC2)n1` stands inactive: -0.0921%.

In the case of `Cc1nc2ccccn2c1C(=O)NCCCN1CCOCC1`, the activity change, negative = inhibition is inactive: 1.24%.

As for `O=C1CC2(CCN(C(=O)c3ccccc3Cl)CC2)Oc2ccccc21`, the activity change, negative = inhibition was inactive: 0.607%. Under `Cc1ccc(OCc2nnnn2-c2ccccc2)cc1` stands inactive: 0.0431%; under `Cc1ccc(-c2csc3nc(C)n(-n4c(C)ccc4C)c(=O)c23)o1`, inactive: 0.0945%; under `CC(C)(C)OC(=O)NNC(=O)Nc1ccccc1C(F)(F)F`, inactive: -0.306%. Take `COc1cccc(C2c3[nH]c4ccccc4c3CCN2CCCn2cccn2)c1` (stereo not given): the activity change, negative = inhibition was inactive: 0.00709%. As for `Cc1ccc(C(C)C)c(Oc2nnnn2-c2ccccc2)c1`, the activity change, negative = inhibition was inactive: 0.671%.
